Measured data: PubChem BioAssay AID743454 (Peter MacCallum Cancer Centre, 2014)

- Assay: 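Genes whose loss kills vorinostat-resistant colon cancer cells under vorinostat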 (primary screen)
- Cells: human HCT116-VR colon cancer cells, selected for vorinostat resistance
- Knock-down reagent: siRNA pool against human genes, 40 nM siRNA pool
- Duration: vorinostat for 24 h, read-out about 72 h after transfection
- Challenge: vorinostat at 2.5 µM final
- Read-out: 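Cell viability by CellTiter-Fluor and caspase 3/7 activity by luminescence, each scaled to mock wells per plate, duplicates averaged, then robust z-scored over all plates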
- Reading the numbers: viability robust z-score: higher = more viable cells than screen typical; caspase robust z-score: higher = more caspase 3/7 activity than screen typical
- Rule for the call: 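Hits are knock-downs in viability class RV1/RV2 or caspase class CA1/CA2, excluding ones that killed cells in the no-drug cell-count arm; hits then retested with single siRNAs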
This is an unselected part of about 18,000 reagents. 450 of them (2.5%) were called active. 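Single biological run; no consistent viability z cut-off exists, so the class columns, not z-scores, define the calls.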 Entries without a mark were called inactive.

Against ADH1A, the values are viability hit class no change; caspase hit class no change; viability robust z-score -0.42; caspase robust z-score -1.08. After knock-down of ZCCHC3, the record shows viability hit class no change; caspase hit class no change; viability robust z-score -0.2; caspase robust z-score -0.09. MAGEB1 scored viability hit class no change; caspase hit class no change; viability robust z-score 0.96; caspase robust z-score 0.13. THAP3 showed viability hit class RV2 (reduced viability) (active); caspase hit class no change; viability robust z-score -2.98; caspase robust z-score 1.76. Depletion of TBC1D9 came out at: viability hit class no change; caspase hit class no change; viability robust z-score 0.76; caspase robust z-score 3.02. After knock-down of PLD6, the screen gave viability hit class no change; caspase hit class no change; viability robust z-score -1.57; caspase robust z-score 1.04.

OR1Q1 gave viability hit class no change; caspase hit class no change; viability robust z-score 0.53; caspase robust z-score -0.83. CSNK2B gave viability hit class no change; caspase hit class no change; viability robust z-score -1.02; caspase robust z-score 1.17. Silencing of C7orf25 came out at: viability hit class no change; caspase hit class no change; viability robust z-score 0.15; caspase robust z-score 0.06. SLITRK3 gave viability hit class no change; caspase hit class no change; viability robust z-score -0.22; caspase robust z-score -0.91. Against CCNG2, the entry reads viability hit class no change; caspase hit class no change; viability robust z-score 0.08; caspase robust z-score -0.44. ZNF514 gave viability hit class no change; caspase hit class no change; viability robust z-score 0.54; caspase robust z-score 1.16.

After knock-down of DHX9, the record shows viability hit class no change; caspase hit class no change; viability robust z-score 0.8; caspase robust z-score -1.16. After knock-down of MVB12B, the record shows viability hit class no change; caspase hit class no change; viability robust z-score -2.44; caspase robust z-score 2.77.

Reformatted: results already given
| target | viability hit class | caspase hit class | viability robust z-score | caspase robust z-score |
| --- | --- | --- | --- | --- |
| ZCCHC3 | no change | no change | -0.2 | -0.09 |
| MAGEB1 | no change | no change | 0.96 | 0.13 |

More reagents follow:
Against THEM5 the deposit lists viability hit class no change; caspase hit class no change; viability robust z-score 0.06; caspase robust z-score 0.94. After knock-down of CBLN2 the results were viability hit class no change; caspase hit class no change; viability robust z-score -1.5; caspase robust z-score 0.75. After knock-down of IGFBP6, the screen gave viability hit class no change; caspase hit class no change; viability robust z-score -0.16; caspase robust z-score 1.93. Depletion of HSPA6 came out at: viability hit class no change (active); caspase hit class CA1 (caspase activation); viability robust z-score -1.49; caspase robust z-score 6.02. With knock-down of SACK1A, the record shows viability hit class no change; caspase hit class no change; viability robust z-score 0.3; caspase robust z-score 0.74. Silencing of CHCHD4 came out at: viability hit class no change; caspase hit class no change; viability robust z-score -0.99; caspase robust z-score -0.01.

Silencing of SVEP1 came out at: viability hit class no change; caspase hit class no change; viability robust z-score -1.1; caspase robust z-score -0.05.
